Data taken from the M2OR odorant receptor database.
Only a part is listed here, and it is no random draw. Calls are pooled over several reports, among them a noisy single-well screen. The list shows a part of the results.

The chains behind the UniProt entries cited, without tags or fusion partners. Where a name states a change or a piece, a line headed by the entry shows the natural chain unless it says otherwise.
UniProt Q9H342: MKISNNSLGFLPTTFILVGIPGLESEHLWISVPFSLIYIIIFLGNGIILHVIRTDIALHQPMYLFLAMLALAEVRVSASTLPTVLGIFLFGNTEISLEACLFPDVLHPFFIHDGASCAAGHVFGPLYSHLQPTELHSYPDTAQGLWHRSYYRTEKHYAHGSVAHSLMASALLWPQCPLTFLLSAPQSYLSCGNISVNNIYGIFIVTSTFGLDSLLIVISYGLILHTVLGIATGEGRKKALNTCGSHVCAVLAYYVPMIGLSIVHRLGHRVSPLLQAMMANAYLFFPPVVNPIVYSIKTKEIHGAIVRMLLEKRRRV
UniProt Q9H2C8: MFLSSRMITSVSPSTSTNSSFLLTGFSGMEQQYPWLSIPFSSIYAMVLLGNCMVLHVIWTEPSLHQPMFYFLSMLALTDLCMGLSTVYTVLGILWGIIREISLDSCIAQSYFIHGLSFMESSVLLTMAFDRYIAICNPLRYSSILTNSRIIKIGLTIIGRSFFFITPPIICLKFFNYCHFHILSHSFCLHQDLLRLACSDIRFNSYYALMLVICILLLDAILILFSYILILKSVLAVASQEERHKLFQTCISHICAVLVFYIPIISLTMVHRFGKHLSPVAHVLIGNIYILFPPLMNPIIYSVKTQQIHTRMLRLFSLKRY
UniProt Q8NGJ4: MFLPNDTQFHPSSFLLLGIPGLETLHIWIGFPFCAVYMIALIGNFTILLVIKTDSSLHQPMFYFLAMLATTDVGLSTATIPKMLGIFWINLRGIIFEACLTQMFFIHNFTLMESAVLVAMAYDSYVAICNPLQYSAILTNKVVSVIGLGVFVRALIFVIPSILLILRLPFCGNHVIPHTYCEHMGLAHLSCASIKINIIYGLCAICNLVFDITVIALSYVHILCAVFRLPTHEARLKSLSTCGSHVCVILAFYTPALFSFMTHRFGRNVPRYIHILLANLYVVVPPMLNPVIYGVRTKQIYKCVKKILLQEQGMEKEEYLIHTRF
UniProt Q8NGH9: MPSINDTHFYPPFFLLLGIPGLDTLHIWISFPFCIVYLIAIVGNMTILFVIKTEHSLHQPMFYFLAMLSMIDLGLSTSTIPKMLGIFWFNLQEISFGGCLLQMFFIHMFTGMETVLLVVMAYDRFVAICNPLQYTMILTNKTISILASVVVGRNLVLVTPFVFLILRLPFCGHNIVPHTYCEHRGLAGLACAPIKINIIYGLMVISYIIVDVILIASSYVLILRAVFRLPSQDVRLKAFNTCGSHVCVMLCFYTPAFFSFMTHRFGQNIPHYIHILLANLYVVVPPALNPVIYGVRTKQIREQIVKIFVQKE
UniProt Q8NH55: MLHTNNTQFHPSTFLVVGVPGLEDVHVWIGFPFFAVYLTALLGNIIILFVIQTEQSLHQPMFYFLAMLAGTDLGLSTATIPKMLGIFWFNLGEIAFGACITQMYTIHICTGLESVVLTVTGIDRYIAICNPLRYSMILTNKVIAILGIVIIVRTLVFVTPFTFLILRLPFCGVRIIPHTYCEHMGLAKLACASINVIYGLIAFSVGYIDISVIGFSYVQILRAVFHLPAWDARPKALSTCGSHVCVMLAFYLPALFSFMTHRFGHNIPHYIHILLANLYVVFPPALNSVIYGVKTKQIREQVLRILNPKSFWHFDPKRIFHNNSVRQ

Key:
Settings in all cases: stereoisomer not certain
OR51I1 (Homo sapiens) = target: T1, OR51I1 (Homo sapiens) (UniProt Q9H343)
T1 sequence (whole entry): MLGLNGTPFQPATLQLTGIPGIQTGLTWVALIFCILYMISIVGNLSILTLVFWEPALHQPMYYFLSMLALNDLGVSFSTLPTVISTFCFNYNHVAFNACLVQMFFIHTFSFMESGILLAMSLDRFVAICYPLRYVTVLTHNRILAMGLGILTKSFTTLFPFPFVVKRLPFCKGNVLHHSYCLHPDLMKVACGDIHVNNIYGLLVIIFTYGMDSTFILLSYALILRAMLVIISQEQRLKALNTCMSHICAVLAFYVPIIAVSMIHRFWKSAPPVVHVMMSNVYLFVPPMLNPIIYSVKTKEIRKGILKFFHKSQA
Outline: (§1)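 Transient luciferase assays in mammalian cell lines were common, though methods varied by source. The values come from published papers and their supplementary material, with extra details from the original authors when needed. Responsive refers to a measured signal the original authors judged statistically different from baseline, and non-responsive (inactive) to the remainder.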

OR51I2 (Homo sapiens) = target: T2, OR51I2 (Homo sapiens) (UniProt Q9H344)
T2 sequence (whole entry): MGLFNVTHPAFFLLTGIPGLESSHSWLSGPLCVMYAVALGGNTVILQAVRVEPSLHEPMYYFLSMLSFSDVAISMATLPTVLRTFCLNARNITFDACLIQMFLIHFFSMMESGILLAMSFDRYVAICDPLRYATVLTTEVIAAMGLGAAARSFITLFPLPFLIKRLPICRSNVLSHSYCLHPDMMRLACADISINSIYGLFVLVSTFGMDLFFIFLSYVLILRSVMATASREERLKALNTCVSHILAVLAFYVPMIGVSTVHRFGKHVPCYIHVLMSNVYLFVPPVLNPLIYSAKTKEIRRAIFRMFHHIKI
Outline: as §1

OR51L1 (Homo sapiens) = target: T3, OR51L1 (Homo sapiens) (UniProt Q8NGJ5)
T3 sequence (whole entry): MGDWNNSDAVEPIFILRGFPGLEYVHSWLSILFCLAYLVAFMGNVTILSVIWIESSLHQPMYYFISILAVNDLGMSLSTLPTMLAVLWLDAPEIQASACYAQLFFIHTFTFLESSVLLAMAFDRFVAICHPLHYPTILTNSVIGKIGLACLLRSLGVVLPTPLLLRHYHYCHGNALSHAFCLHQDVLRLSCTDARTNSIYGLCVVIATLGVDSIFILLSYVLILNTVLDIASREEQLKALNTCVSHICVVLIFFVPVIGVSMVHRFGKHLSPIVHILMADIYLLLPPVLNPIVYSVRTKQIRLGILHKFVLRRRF
Outline: as §1

OR51S1 (Homo sapiens) = target: T4, OR51S1 (Homo sapiens) (UniProt Q8NGJ8)
T4 sequence (whole entry): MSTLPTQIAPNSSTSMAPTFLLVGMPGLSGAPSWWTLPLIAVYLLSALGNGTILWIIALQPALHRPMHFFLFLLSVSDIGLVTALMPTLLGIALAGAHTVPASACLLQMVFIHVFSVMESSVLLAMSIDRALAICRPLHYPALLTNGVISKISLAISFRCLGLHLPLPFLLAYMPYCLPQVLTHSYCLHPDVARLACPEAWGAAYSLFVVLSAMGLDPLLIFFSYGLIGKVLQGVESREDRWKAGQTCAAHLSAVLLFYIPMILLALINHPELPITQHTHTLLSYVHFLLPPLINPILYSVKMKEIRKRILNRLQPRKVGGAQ
Outline: as §1

OR52A4P (Homo sapiens) = target: T5, OR52A4P (Homo sapiens) (UniProt A6NMU1)
T5 sequence (whole entry): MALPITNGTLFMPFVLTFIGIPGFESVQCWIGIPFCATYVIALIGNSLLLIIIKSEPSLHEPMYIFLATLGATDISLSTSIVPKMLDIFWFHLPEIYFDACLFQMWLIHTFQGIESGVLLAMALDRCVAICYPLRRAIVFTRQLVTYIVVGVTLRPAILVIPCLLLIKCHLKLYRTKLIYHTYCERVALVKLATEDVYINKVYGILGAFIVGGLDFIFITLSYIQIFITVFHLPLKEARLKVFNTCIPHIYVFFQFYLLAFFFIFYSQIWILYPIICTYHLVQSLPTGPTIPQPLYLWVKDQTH
Outline: as §1

OR52A5 (Homo sapiens) = target: T6, OR52A5 (Homo sapiens) (UniProt Q9H2C5)
T6 sequence (whole entry): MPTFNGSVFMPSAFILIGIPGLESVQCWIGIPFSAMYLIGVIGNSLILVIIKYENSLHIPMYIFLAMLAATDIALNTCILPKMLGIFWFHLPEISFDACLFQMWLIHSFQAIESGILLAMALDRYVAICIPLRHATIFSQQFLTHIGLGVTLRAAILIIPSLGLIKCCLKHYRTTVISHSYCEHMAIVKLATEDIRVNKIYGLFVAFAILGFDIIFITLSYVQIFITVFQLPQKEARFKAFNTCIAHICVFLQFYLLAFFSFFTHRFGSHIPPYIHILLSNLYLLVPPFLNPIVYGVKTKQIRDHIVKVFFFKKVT
Outline: as §1

OR52B4 (Homo sapiens) = target: T7, OR52B4 (Homo sapiens) (UniProt Q8NGK2)
T7 sequence (whole entry): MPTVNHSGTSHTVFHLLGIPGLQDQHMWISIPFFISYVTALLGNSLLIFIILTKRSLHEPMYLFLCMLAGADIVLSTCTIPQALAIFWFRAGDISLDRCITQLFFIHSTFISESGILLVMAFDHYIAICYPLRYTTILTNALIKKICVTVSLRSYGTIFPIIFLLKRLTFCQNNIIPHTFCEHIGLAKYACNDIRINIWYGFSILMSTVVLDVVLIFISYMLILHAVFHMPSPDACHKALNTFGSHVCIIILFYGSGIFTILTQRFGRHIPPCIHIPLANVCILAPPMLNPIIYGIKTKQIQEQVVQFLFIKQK
Outline: as §1

OR52D1 (Homo sapiens) = target: T8, OR52D1 (Homo sapiens) (UniProt Q9H346)
T8 sequence (whole entry): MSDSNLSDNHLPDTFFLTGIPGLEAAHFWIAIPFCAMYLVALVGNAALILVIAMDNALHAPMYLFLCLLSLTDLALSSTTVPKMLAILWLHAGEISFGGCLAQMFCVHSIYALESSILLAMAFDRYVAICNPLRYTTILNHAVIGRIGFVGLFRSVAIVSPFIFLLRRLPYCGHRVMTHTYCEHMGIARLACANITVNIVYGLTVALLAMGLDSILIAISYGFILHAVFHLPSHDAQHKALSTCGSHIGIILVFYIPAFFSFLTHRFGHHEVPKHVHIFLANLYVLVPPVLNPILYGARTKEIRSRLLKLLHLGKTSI
Outline: as §1

OR51J1 (Homo sapiens) = OR51J1 (Homo sapiens) (UniProt Q9H342)
Outline: as §1

OR51M1 (Homo sapiens) = target: T9, OR51M1 (Homo sapiens) (UniProt Q9H341)
T9 sequence (whole entry): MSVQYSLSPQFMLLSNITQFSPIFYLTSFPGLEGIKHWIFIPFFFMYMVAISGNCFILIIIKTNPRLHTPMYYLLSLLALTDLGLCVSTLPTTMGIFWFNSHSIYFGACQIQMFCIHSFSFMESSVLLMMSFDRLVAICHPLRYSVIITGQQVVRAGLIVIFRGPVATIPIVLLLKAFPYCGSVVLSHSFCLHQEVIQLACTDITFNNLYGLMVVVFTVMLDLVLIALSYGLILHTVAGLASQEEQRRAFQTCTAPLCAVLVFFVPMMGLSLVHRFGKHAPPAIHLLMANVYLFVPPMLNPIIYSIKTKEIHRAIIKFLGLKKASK
Outline: as §1

OR51Q1 (Homo sapiens) = target: T10, OR51Q1 (Homo sapiens) (UniProt Q8NH59)
T10 sequence (whole entry): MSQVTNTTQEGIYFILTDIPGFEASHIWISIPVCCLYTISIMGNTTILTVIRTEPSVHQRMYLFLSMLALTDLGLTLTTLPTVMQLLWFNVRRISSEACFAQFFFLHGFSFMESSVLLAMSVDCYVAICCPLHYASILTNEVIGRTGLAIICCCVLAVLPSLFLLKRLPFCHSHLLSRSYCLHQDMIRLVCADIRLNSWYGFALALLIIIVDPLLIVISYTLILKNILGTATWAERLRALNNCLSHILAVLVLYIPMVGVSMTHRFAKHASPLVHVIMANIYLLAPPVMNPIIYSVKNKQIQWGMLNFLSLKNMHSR
Outline: as §1

OR51T1 (Homo sapiens) = target: T11, OR51T1 (Homo sapiens) (UniProt Q8NGJ9)
T11 sequence (whole entry): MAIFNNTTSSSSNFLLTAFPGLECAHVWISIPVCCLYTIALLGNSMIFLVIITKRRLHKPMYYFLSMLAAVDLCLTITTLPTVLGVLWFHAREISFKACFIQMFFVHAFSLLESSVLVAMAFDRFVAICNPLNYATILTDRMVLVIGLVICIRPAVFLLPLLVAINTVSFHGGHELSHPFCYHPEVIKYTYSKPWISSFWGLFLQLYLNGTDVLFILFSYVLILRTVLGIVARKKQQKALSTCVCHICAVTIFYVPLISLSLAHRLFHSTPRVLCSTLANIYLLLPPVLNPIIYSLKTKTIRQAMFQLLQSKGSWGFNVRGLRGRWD
Outline: as §1

OR51V1 (Homo sapiens) = OR51V1 (Homo sapiens) (UniProt Q9H2C8)
Outline: as §1

OR52A1 (Homo sapiens) = target: T12, OR52A1 (Homo sapiens) (UniProt Q9UKL2)
T12 sequence (whole entry): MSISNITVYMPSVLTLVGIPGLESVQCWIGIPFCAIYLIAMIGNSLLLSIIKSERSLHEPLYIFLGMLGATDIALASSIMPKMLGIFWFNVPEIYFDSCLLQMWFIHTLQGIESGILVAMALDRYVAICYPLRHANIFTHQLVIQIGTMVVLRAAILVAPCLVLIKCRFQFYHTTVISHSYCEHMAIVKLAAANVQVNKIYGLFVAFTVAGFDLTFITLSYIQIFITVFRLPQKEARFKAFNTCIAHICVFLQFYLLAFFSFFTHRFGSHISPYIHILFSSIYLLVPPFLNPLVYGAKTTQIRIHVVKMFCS
Outline: as §1

OR52B2 (Homo sapiens) = target: T13, OR52B2 (Homo sapiens) (UniProt Q96RD2)
T13 sequence (whole entry): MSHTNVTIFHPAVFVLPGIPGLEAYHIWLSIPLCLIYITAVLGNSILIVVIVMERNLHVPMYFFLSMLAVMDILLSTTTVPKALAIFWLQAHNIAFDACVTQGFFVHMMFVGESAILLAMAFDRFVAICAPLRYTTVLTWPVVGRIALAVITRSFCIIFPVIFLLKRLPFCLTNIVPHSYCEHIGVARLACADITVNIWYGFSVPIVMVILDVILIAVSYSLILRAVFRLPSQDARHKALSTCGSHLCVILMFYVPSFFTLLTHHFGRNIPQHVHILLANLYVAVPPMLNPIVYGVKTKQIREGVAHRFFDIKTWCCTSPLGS
Outline: as §1

OR52B6 (Homo sapiens) = target: T14, OR52B6 (Homo sapiens) (UniProt Q8NGF0)
T14 sequence (whole entry): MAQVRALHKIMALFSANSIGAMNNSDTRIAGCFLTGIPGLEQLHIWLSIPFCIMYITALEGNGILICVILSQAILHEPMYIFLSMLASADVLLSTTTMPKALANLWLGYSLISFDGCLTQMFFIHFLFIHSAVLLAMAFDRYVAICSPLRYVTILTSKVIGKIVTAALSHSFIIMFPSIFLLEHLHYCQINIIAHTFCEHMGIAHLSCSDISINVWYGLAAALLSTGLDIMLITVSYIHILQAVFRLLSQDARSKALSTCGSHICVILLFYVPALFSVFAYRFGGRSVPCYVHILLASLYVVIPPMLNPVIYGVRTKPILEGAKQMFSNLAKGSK
Outline: as §1

OR52E2 (Homo sapiens) = OR52E2 (Homo sapiens) (UniProt Q8NGJ4)
Outline: as §1

OR52E4 (Homo sapiens) = OR52E4 (Homo sapiens) (UniProt Q8NGH9)
Outline: as §1

OR52E5 (Homo sapiens) = OR52E5 (Homo sapiens) (UniProt Q8NH55)
Outline: as §1

Measured: odorant receptor agonist call;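 also: active if original authors judged signal statistically different from baseline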

CCCCCCCC=O
inactive: OR51I1 (Homo sapiens) | OR51I2 (Homo sapiens) | OR51L1 (Homo sapiens) | OR51S1 (Homo sapiens) | OR52A4P (Homo sapiens) | OR52A5 (Homo sapiens) | OR52B4 (Homo sapiens)
active: OR52D1 (Homo sapiens)

CC(=O)OC1CC2CCC1(C)C2(C)C (stereo unspecified)
inactive: OR51I1 (Homo sapiens) | OR51I2 (Homo sapiens) | OR51L1 (Homo sapiens) | OR52A4P (Homo sapiens) | OR52A5 (Homo sapiens) | OR52B4 (Homo sapiens) | OR52D1 (Homo sapiens)
active: OR51S1 (Homo sapiens)

CC1CCC(C(C)C)C(O)C1 (stereo unspecified)
inactive: OR51I1 (Homo sapiens) | OR51I2 (Homo sapiens) | OR51S1 (Homo sapiens) | OR52A4P (Homo sapiens) | OR52A5 (Homo sapiens) | OR52D1 (Homo sapiens)
active: OR51L1 (Homo sapiens) | OR52B4 (Homo sapiens)

COc1ccccc1O
inactive: OR51I1 (Homo sapiens) | OR51I2 (Homo sapiens) | OR51L1 (Homo sapiens) | OR51S1 (Homo sapiens) | OR52A4P (Homo sapiens) | OR52A5 (Homo sapiens) | OR52B4 (Homo sapiens) | OR52D1 (Homo sapiens)

CC(=O)C(C)=O
inactive: all assays above
